{
  "source": "PubChem BioAssay AID2685",
  "about": "(National Center for Advancing Translational Sciences (NCATS), 2010)",
  "assay": "qHTS Assay for Lipid Storage Modulators in Drosophila S3 Cells;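 for cell number change: cells counted by Cell Tracker Red CMTPX staining in the red channel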",
  "conditions": "BODIPY lipid droplet fluorescence, 18-24 h; for cell number change: measured here: cell count max response, cells fed with added oleic acid",
  "method_in_brief": "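Drosophila S3 cells got compounds at several concentrations plus oleic acid (400 uM solution). Laser-scanning cytometry with 488 nm excitation read lipid droplets at 500-530 nm and cells at 575-640 nm. Percent activity was relative to 20 uM Triacsin C.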",
  "key": {"[1]": {"conditions": "measured here: cell number channel AC50, cells fed with added oleic acid"}, "[2]": {"conditions": "measured here: lipid fluorescence (Fed channel) AC50, cells fed with added oleic acid"}},
  "note": "This is one part of the list. These are further read-outs of the screen, such as a control signal, another cell line or another target. No call is given for them. Compounds called inactive in the main read-out are mostly missing here. The note in brackets gives the kind of curve behind each potency; many fits are weak.",
  "data": [
    {"smiles": "CSc1nc2ccc(NS(=O)(=O)c3ccc(Br)s3)cc2s1", "values": [
      {"measurement": "cell number change", "value": -51.9, "unit": "%"},
      {"measurement": "AC50", "setting": "[1]", "value": "16.4 µM [falling, partial curve]"},
      {"measurement": "AC50", "setting": "[2]", "value": "23.1 µM [falling, partial curve]"}
    ]},
    {"smiles": "COCCSc1nnc(NC(=O)CSCc2ccccc2)s1", "values": [
      {"measurement": "AC50", "setting": "[1]", "value": "4.11 µM [falling, partial curve]"}
    ]},
    {"smiles": "Cc1cnc(CN(C)Cc2c(C(=O)N3CCCCCCC3)nc3ccc(Cl)cn23)[nH]1", "values": [
      {"measurement": "cell number change", "value": -7.43, "unit": "%"},
      {"measurement": "AC50", "setting": "[1]", "value": "3.66 µM [rising, single point]"},
      {"measurement": "AC50", "setting": "[2]", "value": "29.1 µM [rising, single point]"}
    ]},
    {"smiles": "COc1ccc(Nc2ncc3c(n2)CC(c2ccccc2)CC3=O)cc1", "note": "(stereo not drawn)", "values": [
      {"measurement": "cell number change", "value": -8.52, "unit": "%"},
      {"measurement": "AC50", "setting": "[2]", "value": "29.1 µM [falling, single point]"}
    ]},
    {"smiles": "CCNC(=O)N1c2ccc(OCC)cc2C(C)=CC1(C)C", "values": [
      {"measurement": "AC50", "setting": "[2]", "value": "29.1 µM [falling, single point]"}
    ]},
    {"smiles": "COc1cccc(-c2cc(C(=O)NCCc3ccccc3)no2)c1", "values": [
      {"measurement": "cell number change", "value": 1.3, "unit": "%"},
      {"measurement": "AC50", "setting": "[2]", "value": "8.2 µM [rising, partial curve]"}
    ]},
    {"smiles": "Cc1cc2[nH]c(=O)c(=O)[nH]c2cc1S(=O)(=O)N(C)C1CCCCC1", "values": [
      {"measurement": "cell number change", "value": -9.22, "unit": "%"},
      {"measurement": "AC50", "setting": "[2]", "value": "20.6 µM [falling, single point]"}
    ]},
    {"smiles": "COc1ccccc1C(=O)Nc1ccc2c(c1)nc(CN1CCCCC1)n2C", "values": [
      {"measurement": "cell number change", "value": 22.1, "unit": "%"},
      {"measurement": "AC50", "setting": "[1]", "value": "0.13 µM [rising, full curve, poor fit]"},
      {"measurement": "AC50", "setting": "[2]", "value": "0.058 µM [rising, full curve, poor fit]"}
    ]},
    {"smiles": "COc1cccc(NS(=O)(=O)c2cc3c4c(c2)CCC(=O)N4CCC3)c1", "values": [
      {"measurement": "cell number change", "value": 58.2, "unit": "%"},
      {"measurement": "AC50", "setting": "[1]", "value": "14.6 µM [rising, partial curve]"}
    ]},
    {"smiles": "Cc1ccc(S(=O)(=O)Nc2nc3ccccc3nc2NCc2ccco2)cc1", "values": [
      {"measurement": "AC50", "setting": "[1]", "value": "1.46 µM [rising, partial curve]"}
    ]},
    {"smiles": "O=C(Cn1ccc2cc(S(=O)(=O)N3CCCC3)ccc21)NCCc1ccccc1", "values": [
      {"measurement": "cell number change", "value": -11.8, "unit": "%"}
    ]},
    {"smiles": "Cc1nn(CCC#N)c2nc(C(F)(F)F)[nH]c(=O)c12", "values": [
      {"measurement": "cell number change", "value": 3.9, "unit": "%"},
      {"measurement": "AC50", "setting": "[2]", "value": "0.116 µM [falling, full curve, poor fit]"}
    ]},
    {"smiles": "CCc1ccc(OCC2Cn3c(nc4c3c(=O)[nH]c(=O)n4C)O2)cc1", "note": "(stereo not drawn)", "values": [
      {"measurement": "cell number change", "value": -10.5, "unit": "%"},
      {"measurement": "AC50", "setting": "[2]", "value": "0.58 µM [falling, single point]"}
    ]},
    {"smiles": "O=C(OCC(=O)N1CCN(C(=O)c2ccco2)CC1)c1cc(-c2cccc(Br)c2)nc2ccccc12", "values": [
      {"measurement": "cell number change", "value": 16.1, "unit": "%"},
      {"measurement": "AC50", "setting": "[1]", "value": "0.184 µM [rising, full curve, poor fit]"}
    ]},
    {"smiles": "CC1Cc2cc(S(=O)(=O)N3CCN(c4ccc(Cl)cc4)CC3)ccc2N1C(=O)C1CC1", "note": "(stereo not drawn)", "values": [
      {"measurement": "cell number change", "value": -1.53, "unit": "%"}
    ]},
    {"smiles": "CCOc1ccc(CNC(=O)c2ccc(NC(=O)C3=CSCCO3)cc2)cc1", "values": [
      {"measurement": "cell number change", "value": 23.2, "unit": "%"},
      {"measurement": "AC50", "setting": "[2]", "value": "4.61 µM [rising, full curve]"}
    ]},
    {"smiles": "CC(NC(=O)C1CCCCC1)C(c1cccs1)N1CCN(C)CC1", "note": "(stereo not drawn)", "values": [
      {"measurement": "cell number change", "value": -13.7, "unit": "%"},
      {"measurement": "AC50", "setting": "[2]", "value": "0.651 µM [falling, partial curve, poor fit]"}
    ]},
    {"smiles": "Cn1c(CCC(N)=O)nnc1SCC(=O)Nc1ccccc1C(=O)NC1CC1", "values": [
      {"measurement": "cell number change", "value": 4.15, "unit": "%"},
      {"measurement": "AC50", "setting": "[2]", "value": "2.06 µM [falling, partial curve, poor fit]"}
    ]},
    {"smiles": "O=c1ccc(-c2ccc(S(=O)(=O)Nc3ccccc3)o2)n[nH]1", "values": [
      {"measurement": "cell number change", "value": -30.4, "unit": "%"},
      {"measurement": "AC50", "setting": "[1]", "value": "2.59 µM [falling, full curve, poor fit]"},
      {"measurement": "AC50", "setting": "[2]", "value": "2.59 µM [falling, full curve]"}
    ]},
    {"smiles": "Cc1ccc2oc(C(=O)NCc3ccccc3)cc(=O)c2c1", "values": [
      {"measurement": "cell number change", "value": 0.354, "unit": "%"},
      {"measurement": "AC50", "setting": "[2]", "value": "8.2 µM [falling, partial curve]"}
    ]},
    {"smiles": "CCOc1cc(Cl)c(NC(C)=O)cc1OCC", "values": [
      {"measurement": "cell number change", "value": 42.6, "unit": "%"},
      {"measurement": "AC50", "setting": "[1]", "value": "5.17 µM [rising, full curve]"},
      {"measurement": "AC50", "setting": "[2]", "value": "5.8 µM [rising, full curve]"}
    ]},
    {"smiles": "S=C(NCc1cccc(Cl)c1)NC1CCCCC1", "values": [
      {"measurement": "cell number change", "value": 12.9, "unit": "%"},
      {"measurement": "AC50", "setting": "[2]", "value": "0.461 µM [falling, full curve, poor fit]"}
    ]},
    {"smiles": "COc1ccccc1N1CCN(C(=O)c2cc3c(-c4ccc(Cl)cc4)nn(C)c3s2)CC1", "values": [
      {"measurement": "cell number change", "value": 0.184, "unit": "%"}
    ]},
    {"smiles": "CCn1c(CSc2nc(C)cc(C)n2)nnc1SCC(=O)Nc1cccc2ccccc12", "values": [
      {"measurement": "cell number change", "value": 9.85, "unit": "%"},
      {"measurement": "AC50", "setting": "[2]", "value": "2.31 µM [rising, full curve]"}
    ]},
    {"smiles": "CCCCn1c(CN2CCN(c3ccccc3)CC2)nc2c1c(=O)n(C)c(=O)n2C", "values": [
      {"measurement": "AC50", "setting": "[2]", "value": "29.1 µM [falling, single point]"}
    ]},
    {"smiles": "Cc1ccccc1Nc1nc(N)nc(COC(=O)CCC(=O)c2ccc(F)cc2)n1", "values": [
      {"measurement": "cell number change", "value": 107, "unit": "%"},
      {"measurement": "AC50", "setting": "[1]", "value": "7.31 µM [rising, partial curve]"},
      {"measurement": "AC50", "setting": "[2]", "value": "18.4 µM [rising, partial curve]"}
    ]},
    {"smiles": "COCCNCc1ccccc1[N+](=O)[O-]", "values": [
      {"measurement": "cell number change", "value": -7.87, "unit": "%"}
    ]},
    {"smiles": "COc1ccccc1N(CCC#N)C(=O)CSc1ccc2c(c1)OCCO2", "values": [
      {"measurement": "cell number change", "value": -16.3, "unit": "%"}
    ]},
    {"smiles": "O=C(NNc1nc(-c2ccccc2)cs1)c1ccc(F)cc1", "values": [
      {"measurement": "cell number change", "value": -24.3, "unit": "%"},
      {"measurement": "AC50", "setting": "[2]", "value": "29.1 µM [falling, single point]"}
    ]},
    {"smiles": "CN1CCN(c2ccc(-c3cccc(NC(=O)COc4ccc(Cl)cc4)c3)nn2)CC1", "values": [
      {"measurement": "cell number change", "value": 14.7, "unit": "%"},
      {"measurement": "AC50", "setting": "[2]", "value": "6.51 µM [falling, single point]"}
    ]},
    {"smiles": "CCc1nnc(NC(=O)c2c(OC)cccc2OC)s1", "values": [
      {"measurement": "cell number change", "value": 1.42, "unit": "%"},
      {"measurement": "AC50", "setting": "[1]", "value": "0.116 µM [falling, partial curve, poor fit]"}
    ]},
    {"smiles": "COc1ccccc1OCCCCCc1c(C)n[nH]c1C", "values": [
      {"measurement": "cell number change", "value": -26.7, "unit": "%"},
      {"measurement": "AC50", "setting": "[2]", "value": "4.61 µM [rising, full curve, poor fit]"}
    ]},
    {"smiles": "CS(=O)(=O)c1ccc2nc(NC(=O)CCNC(=O)c3ccc(Cl)cc3)sc2c1", "values": [
      {"measurement": "cell number change", "value": 20, "unit": "%"}
    ]},
    {"smiles": "Nc1c(-c2ccsc2)cnc2ncnn12", "values": [
      {"measurement": "cell number change", "value": -7.97, "unit": "%"},
      {"measurement": "AC50", "setting": "[1]", "value": "0.92 µM [falling, full curve, poor fit]"},
      {"measurement": "AC50", "setting": "[2]", "value": "0.00461 µM [falling, full curve, poor fit]"}
    ]},
    {"smiles": "COc1cc(CN2CCCC(N3CCN(c4ccc(F)cc4)CC3)C2)ccc1F", "note": "(stereo not drawn)", "values": [
      {"measurement": "cell number change", "value": -4.12, "unit": "%"},
      {"measurement": "AC50", "setting": "[2]", "value": "20.6 µM [rising, single point]"}
    ]},
    {"smiles": "O=NNc1nc2ccccc2n1Cc1ccccc1", "values": [
      {"measurement": "AC50", "setting": "[2]", "value": "4.11 µM [falling, partial curve]"}
    ]},
    {"smiles": "CCOc1ccc(NC(=S)N(CCc2c(C)[nH]c3ccccc23)Cc2cccnc2)cc1", "values": [
      {"measurement": "cell number change", "value": 5.09, "unit": "%"}
    ]},
    {"smiles": "CN1CCN(/C(=N\\O)c2nonc2N)CC1", "values": [
      {"measurement": "cell number change", "value": -0.261, "unit": "%"},
      {"measurement": "AC50", "setting": "[2]", "value": "13 µM [falling, partial curve, poor fit]"}
    ]},
    {"smiles": "CCc1ccc(Nc2n[n+](-c3ccccc3)c(-c3ccc(OCc4ccccc4)cc3)s2)cc1", "values": [
      {"measurement": "cell number change", "value": -32, "unit": "%"},
      {"measurement": "AC50", "setting": "[2]", "value": "29.1 µM [falling, single point]"}
    ]}
  ]
}
